Measured values as given in the supplement of paper PMC8728848.
Some of the results follow.

How the values were obtained:
Test in all cases: glycan array binding signal (z-score within array); higher = stronger binding
Conditions in all cases: glycan notation: IUPAC condensed, linker removed
Neu5Ac(a2-3)Gal(b1-4)Glc = target: Neu5Ac(a2-3)Gal(b1-4)Glc
In short: (§1)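 The binding signal is a Z-score computed within each array. Data were drawn from 3228 arrays in the Consortium for Functional Glycomics database, restricted to those with a known protein sequence. Scores were averaged over arrays of the same protein sequence at different concentrations or buffers, and over linkers, and negative values can be taken as non-binding.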

[1] = target: Neu5Ac(a2-3)Gal(b1-4)GlcNAc
In short: as §1

[2] = target: Neu5Ac(a2-3)Gal(b1-4)GlcNAc(b1-2)Man
In short: as §1

[3] = target: Neu5Ac(a2-3)Gal(b1-4)GlcNAc(b1-2)Man(a1-3)[GlcNAc(b1-4)][Neu5Ac(a2-3)Gal(b1-4)GlcNAc(b1-2)Man(a1-6)]Man(b1-4)GlcNAc(b1-4)GlcNAc
In short: as §1

[4] = target: Neu5Ac(a2-3)Gal(b1-4)GlcNAc(b1-2)Man(a1-3)[Neu5Ac(a2-3)Gal(b1-4)GlcNAc(b1-2)Man(a1-6)]Man(b1-4)GlcNAc(b1-4)GlcNAc
In short: as §1

[5] = target: Neu5Ac(a2-3)Gal(b1-4)GlcNAc(b1-2)Man(a1-3)[Neu5Ac(a2-3)Gal(b1-4)GlcNAc(b1-2)Man(a1-6)]Man(b1-4)GlcNAc(b1-4)[Fuc(a1-6)]GlcNAc
In short: as §1

[6] = target: Neu5Ac(a2-3)Gal(b1-4)GlcNAc(b1-2)Man(a1-3)[Neu5Ac(a2-6)Gal(b1-4)GlcNAc(b1-2)Man(a1-6)]Man(b1-4)GlcNAc(b1-4)GlcNAc
In short: as §1

[7] = target: Neu5Ac(a2-3)Gal(b1-4)GlcNAc(b1-2)[Neu5Ac(a2-3)Gal(b1-4)GlcNAc(b1-4)]Man(a1-3)[GlcNAc(b1-4)][Neu5Ac(a2-3)Gal(b1-4)GlcNAc(b1-2)[Neu5Ac(a2-3)Gal(b1-4)GlcNAc(b1-6)]Man(a1-6)]Man(b1-4)GlcNAc(b1-4)GlcNAc
In short: as §1

[8] = target: Neu5Ac(a2-3)Gal(b1-4)GlcNAc(b1-2)[Neu5Ac(a2-3)Gal(b1-4)GlcNAc(b1-4)]Man(a1-3)[GlcNAc(b1-4)][Neu5Ac(a2-3)Gal(b1-4)GlcNAc(b1-4)Man(a1-6)]Man(b1-4)GlcNAc(b1-4)GlcNAc
In short: as §1

[9] = target: Neu5Ac(a2-3)Gal(b1-4)GlcNAc(b1-2)[Neu5Ac(a2-3)Gal(b1-4)GlcNAc(b1-6)]Man(a1-6)[Neu5Ac(a2-3)Gal(b1-4)GlcNAc(b1-2)Man(a1-3)]Man(b1-4)GlcNAc(b1-4)GlcNAc
In short: as §1

[10] = target: Neu5Ac(a2-3)Gal(b1-4)GlcNAc(b1-2)[Neu5Ac(a2-3)Gal(b1-4)GlcNAc(b1-6)]Man(a1-6)[Neu5Ac(a2-3)Gal(b1-4)GlcNAc(b1-2)Man(a1-3)][GlcNAc(b1-4)]Man(b1-4)GlcNAc(b1-4)GlcNAc
In short: as §1

[11] = target: Neu5Ac(a2-3)Gal(b1-4)GlcNAc(b1-3)Gal
In short: as §1

[12] = target: Neu5Ac(a2-3)Gal(b1-4)GlcNAc(b1-3)Gal(b1-3)GlcNAc
In short: as §1

[13] = target: Neu5Ac(a2-3)Gal(b1-4)GlcNAc(b1-3)Gal(b1-4)GlcNAc
In short: as §1

[14] = target: Neu5Ac(a2-3)Gal(b1-4)GlcNAc(b1-3)Gal(b1-4)GlcNAc(b1-2)Man(a1-3)[Neu5Ac(a2-3)Gal(b1-4)GlcNAc(b1-3)Gal(b1-4)GlcNAc(b1-2)Man(a1-6)]Man(b1-4)GlcNAc(b1-4)GlcNAc
In short: as §1

[15] = target: Neu5Ac(a2-3)Gal(b1-4)GlcNAc(b1-3)Gal(b1-4)GlcNAc(b1-3)Gal(b1-4)GlcNAc
In short: as §1

[16] = target: Neu5Ac(a2-3)Gal(b1-4)GlcNAc(b1-3)Gal(b1-4)GlcNAc(b1-3)Gal(b1-4)GlcNAc(b1-2)Man(a1-3)[Neu5Ac(a2-3)Gal(b1-4)GlcNAc(b1-3)Gal(b1-4)GlcNAc(b1-3)Gal(b1-4)GlcNAc(b1-2)Man(a1-6)]GalNAc
In short: as §1

[17] = target: Neu5Ac(a2-3)Gal(b1-4)GlcNAc(b1-3)Gal(b1-4)GlcNAc(b1-3)GalNAc
In short: as §1

[18] = target: Neu5Ac(a2-3)Gal(b1-4)GlcNAc(b1-3)Gal(b1-4)GlcNAc(b1-3)[Neu5Ac(a2-3)Gal(b1-4)GlcNAc(b1-3)Gal(b1-4)GlcNAc(b1-6)]GalNAc
In short: as §1

[19] = target: Neu5Ac(a2-3)Gal(b1-4)GlcNAc(b1-3)Gal(b1-4)GlcNAc(b1-6)[Gal(b1-3)]GalNAc
In short: as §1

[20] = target: Neu5Ac(a2-3)Gal(b1-4)GlcNAc(b1-3)Gal(b1-4)[Fuc(a1-3)]GlcNAc
In short: as §1

[21] = target: Neu5Ac(a2-3)Gal(b1-4)GlcNAc(b1-3)GalNAc
In short: as §1

[22] = target: Neu5Ac(a2-3)Gal(b1-4)GlcNAc(b1-3)[Neu5Ac(a2-3)Gal(b1-4)GlcNAc(b1-6)]GalNAc
In short: as §1

[23] = target: Neu5Ac(a2-3)Gal(b1-4)GlcNAc(b1-6)GalNAc
In short: as §1

[24] = target: Neu5Ac(a2-3)Gal(b1-4)GlcNAc(b1-6)[Gal(b1-3)]GalNAc
In short: as §1

[25] = target: Neu5Ac(a2-3)Gal(b1-4)GlcNAc(b1-6)[Neu5Ac(a2-3)Gal(b1-3)]GalNAc
In short: as §1

[26] = target: Neu5Ac(a2-3)Gal(b1-4)GlcNAc6S
In short: as §1

[27] = target: Neu5Ac(a2-3)Gal(b1-4)[Fuc(a1-3)]GlcNAc
In short: as §1

[28] = target: Neu5Ac(a2-3)Gal(b1-4)[Fuc(a1-3)]GlcNAc(b1-2)Man
In short: as §1

[29] = target: Neu5Ac(a2-3)Gal(b1-4)[Fuc(a1-3)]GlcNAc(b1-3)Gal
In short: as §1

[30] = target: Neu5Ac(a2-3)Gal(b1-4)[Fuc(a1-3)]GlcNAc(b1-3)Gal(b1-4)GlcNAc
In short: as §1

[31] = target: Neu5Ac(a2-3)Gal(b1-4)[Fuc(a1-3)]GlcNAc(b1-3)Gal(b1-4)[Fuc(a1-3)]GlcNAc(b1-3)Gal(b1-4)[Fuc(a1-3)]GlcNAc
In short: as §1

[32] = target: Neu5Ac(a2-3)Gal(b1-4)[Fuc(a1-3)]GlcNAc(b1-3)GalNAc
In short: as §1

[33] = target: Neu5Ac(a2-3)Gal(b1-4)[Fuc(a1-3)]GlcNAc(b1-6)[Gal(b1-3)]GalNAc
In short: as §1

[34] = target: Neu5Ac(a2-3)Gal(b1-4)[Fuc(a1-3)]GlcNAc(b1-6)[Neu5Ac(a2-3)Gal(b1-3)]GalNAc
In short: as §1

[35] = target: Neu5Ac(a2-3)Gal(b1-4)[Fuc(a1-3)]GlcNAc6S
In short: as §1

[36] = target: Neu5Ac(a2-3)Gal6S(b1-4)GlcNAc
In short: as §1

[37] = target: Neu5Ac(a2-3)Gal6S(b1-4)[Fuc(a1-3)]GlcNAc
In short: as §1

B1: GS7807F-bth-514-18-514 (Bacteroides thetaiotaomicron) (protein)
chain: AGSCTGNFEEYNTNQFQIHEADPSTLMKSMIETIVNIQQNDSQMMDQMVGQLGGYLTCANVWSGTNFGTFNQSDAWNAGPWNTNFEKIYGNFFQIQEATNESGHYYAFARMIRAITMLRVADCYGPMPYSQVKKGNFYVAYDTEEQVYKNIMEDFASAANVLYNYYKDTNGNAPLASNDPVFSGNYANWARLANSMRLRVAIRISTAYPEMAKENAEAAASHEAGLIEANNDNAMMDCGSQTNPYQLAAVSWGDLRVNANIVDYMNGYGDPRMSKYFNHSTFTGHTQEYVGMRSGEDGFAKSDVAGYSIPAITGTSKLLVFCAAETAFLRAEGKLKNWSVGNKSAKEYYEEGIKLSMEQYGTTMPDNYLTNTEKPTVSHNNDPRGHAYTISNTVAVAWNDNNEEENLQRIITQKWIANYPLGLEAWAEYRRTGYPELYPCIDNLSPSGVDSKRGMRRLRFPYTEVQNNHSNYQQGVSYLKNGGPDNEATDLSWGKTN
glycan array binding signal (z-score) (Neu5Ac(a2-3)Gal(b1-4)Glc): -0.164
glycan array binding signal (z-score) [1]: 0.054
glycan array binding signal (z-score) [2]: -0.11
glycan array binding signal (z-score) [3]: -0.896
glycan array binding signal (z-score) [4]: -0.629
glycan array binding signal (z-score) [5]: -0.842
glycan array binding signal (z-score) [6]: 0.223
glycan array binding signal (z-score) [7]: -0.844
glycan array binding signal (z-score) [8]: -0.887
glycan array binding signal (z-score) [9]: -0.391
glycan array binding signal (z-score) [10]: -0.89
glycan array binding signal (z-score) [11]: -0.848
glycan array binding signal (z-score) [12]: -0.597
glycan array binding signal (z-score) [13]: -0.353
glycan array binding signal (z-score) [14]: 2.45
glycan array binding signal (z-score) [15]: -0.869
glycan array binding signal (z-score) [16]: 2.04
glycan array binding signal (z-score) [17]: -0.893
glycan array binding signal (z-score) [18]: 1.28
glycan array binding signal (z-score) [19]: 0.268
glycan array binding signal (z-score) [20]: -0.859
glycan array binding signal (z-score) [21]: -0.877
glycan array binding signal (z-score) [22]: -0.897
glycan array binding signal (z-score) [23]: -0.442
glycan array binding signal (z-score) [24]: -0.094
glycan array binding signal (z-score) [25]: -0.898
glycan array binding signal (z-score) [26]: -0.841
glycan array binding signal (z-score) [27]: -0.894
glycan array binding signal (z-score) [28]: -0.684
glycan array binding signal (z-score) [29]: -0.924
glycan array binding signal (z-score) [30]: 0.143
glycan array binding signal (z-score) [31]: -0.88
glycan array binding signal (z-score) [32]: 1.62
glycan array binding signal (z-score) [33]: 1.96
glycan array binding signal (z-score) [34]: 0.621
glycan array binding signal (z-score) [35]: -0.84
glycan array binding signal (z-score) [36]: -0.774
glycan array binding signal (z-score) [37]: -0.904
